The results in this text go back to the supplement of paper PMC12542422.

Counter-ions that a name gives are not always drawn. ± gives the standard deviation of the averaged measurements. Some of the results follow. These are raw signals, not scaled to a control.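 Ribosome-assembly readouts in HeLa cells were imaged via ENP1 staining, with or without export block, or inducible tagged ribosomal protein reporters. Machine learning classified per-cell signal location versus solvent (DMSO) controls. Hits surpassed the DMSO false-positive mean by five standard deviations and were visually confirmed; three biological replicates.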

The assay concerns HeLa RPL29-GFP reporter. Nature of the assay: fraction of reporter-positive cells with nuclear (nucleolar or nucleolar/nucleoplasmic) RPL29-GFP (MainHitrate); higher = more cells with nucleolar/nuclear readout signal (for ENP1 -LMB: less RNAPI inhibition; for +LMB ENP1 and RP reporters: stronger nuclear/nucleolar retention, i.e. ribosome biogenesis defect). The conditions noted are these: concentration: 1 µM; treatment time: 6 h.
Consider `Cc1nccn1CC1CCc2c(c3ccccc3n2C)C1=O` (stereo not drawn) [Ondansetron (Zofran)], for which the “fraction of reporter-positive cells with nuclear” value (“fraction” for short) was 0.244 ± 0.083.

Regarding `CCCNC(C)C(=O)Nc1c(C)csc1C(=O)OC` (stereo not drawn) [Articaine HCl], the “fraction” value is 0.214 ± 0.086.

Take `CC(C)C[C@H](NC(=O)[C@H](CCc1ccccc1)NC(=O)CN1CCOCC1)C(=O)N[C@@H](Cc1ccccc1)C(=O)N[C@@H](CC(C)C)C(=O)[C@@]1(C)CO1` [Carfilzomib (PR-171)]: the “fraction” value was found to be 0.668 ± 0.36.

For the compound `O=C(O)Cc1cc(I)c(Oc2ccc(O)c(I)c2)c(I)c1` [Tiratricol], the “fraction” value worked out at 0.188 ± 0.053.

For the compound `CCC(=O)O[C@]1(C(=O)CCl)[C@@H](C)C[C@H]2[C@@H]3CCC4=CC(=O)C=C[C@]4(C)[C@@]3(F)[C@@H](O)C[C@@]21C` [Clobetasol propionate], the “fraction” value turned out to be 0.234 ± 0.0027.

Take `CC[C@@H]1C(=O)OC[C@@H]1Cc1cncn1C` [Pilocarpine HCl]: the “fraction” value stood at 0.207 ± 0.068.

In the case of `CC(=O)O[C@]1(C(C)=O)CC[C@H]2[C@@H]3C[C@H](C)C4=CC(=O)C=C[C@]4(C)[C@@]3(F)[C@@H](O)C[C@@]21C` [Fluorometholone Acetate], the “fraction” value is 0.238 ± 0.093. Then `c1ccc2[nH]c(-c3cscn3)nc2c1` [Thiabendazole], with 0.21 ± 0.083; and `CN(C)CCC[C@@]1(c2ccc(F)cc2)OCc2cc(C#N)ccc21` [Escitalopram oxalate], with 0.218 ± 0.043; and `O=C(NC(Cc1cc(=O)[nH]c2ccccc12)C(=O)O)c1ccc(Cl)cc1` (stereo not drawn) [Rebamipide], with 0.225 ± 0.079. The same measure for `Cc1cccc(N(C)C(=S)Oc2ccc3ccccc3c2)c1` [Tolnaftate]: 0.244 ± 0.064; for `CCCC(CCC)C(=O)O` [Divalproex sodium]: 0.192 ± 0.059; for `CCOC(=O)c1ccc(C#Cc2ccc3c(c2)C(C)(C)CCS3)nc1` [Tazarotene (Avage)]: 0.233 ± 0.058. Then `CC(C)CC(N)=O` [Isovaleramide], with 0.208 ± 0.087; and `O=c1n(CCCN2CCN(c3cccc(Cl)c3)CC2)nc2ccccn12` [Trazodone hydrochloride (Desyrel)], with 0.237 ± 0.04; and `Clc1ccc(C(Cn2ccnc2)OCc2c(Cl)cccc2Cl)c(Cl)c1` (stereo not drawn) [Isoconazole nitrate (Travogen)], with 0.235 ± 0.073. As to `C=CCNC(N)=S` [Allylthiourea], the “fraction” value was found to be 0.193 ± 0.059.

As for `OC[C@H]1O[C@H](O[C@]2(CCl)O[C@H](CCl)[C@@H](O)[C@@H]2O)[C@H](O)[C@@H](O)[C@H]1Cl` [Sucralose], the “fraction” value stood at 0.221 ± 0.07. As for `CCC(=O)O[C@]1(C(=O)SCF)[C@H](C)C[C@H]2[C@@H]3C[C@H](F)C4=CC(=O)C=C[C@]4(C)[C@@]3(F)[C@@H](O)C[C@@]21C` [Fluticasone propionate (Flonase, Veramyst)], the “fraction” value amounted to 0.272 ± 0.088. Then `Nc1ncnc2c1ncn2[C@@H]1O[C@H](CO)[C@@H](O)[C@H]1O` [Adenosine (Adenocard)], with 0.218 ± 0.073.

Turning to `CCCN(CCC)CCc1cccc2c1CC(=O)N2` [Ropinirole HCl], the “fraction” value stood at 0.23 ± 0.067.

Take `O=C(O)CCCC[C@@H]1SC[C@@H]2NC(=O)N[C@@H]21` [Biotin (Vitamin B7)]: the “fraction” value came out at 0.203 ± 0.053.

As for `CN1CCCCC1CCN1c2ccccc2Sc2ccc([S+](C)[O-])cc21` (stereo not drawn) [Mesoridazine Besylate], the “fraction” value stood at 0.292 ± 0.17. The same measure for `CC1(C)S[C@@H]2[C@H](NC(=O)Cc3ccccc3)C(=O)N2[C@H]1C(=O)O` [Benzylpenicillin sodium]: 0.206 ± 0.023; for `CCOC(CN1CCN(CC(C)C(=O)c2ccccc2)CC1)c1ccccc1` (stereo not drawn) [Eprazinone 2HCl]: 0.227 ± 0.054. Then `Cc1cc(C(C)(C)C)c(O)c(C)c1CC1=NCCN1` [Oxymetazoline hydrochloride], with 0.243 ± 0.075; and `CO[C@H]1C(=O)[C@]2(C)[C@@H](OC)C[C@H]3OC[C@@]3(OC(C)=O)[C@H]2[C@H](OC(=O)c2ccccc2)[C@]2(O)C[C@H](OC(=O)[C@H](O)[C@@H](NC(=O)OC(C)(C)C)c3ccccc3)C(C)=C1C2(C)C` [Cabazitaxel (Jevtana)], with 0.276 ± 0.12; and `Nc1nc(Cl)nc2c1ncn2[C@H]1C[C@H](O)[C@@H](CO)O1` [Cladribine], with 0.182 ± 0.072. For `COc1cc(C(=O)NC2CCCNC2)cc(OC)c1OC` (stereo not drawn) [Troxipide], the “fraction” value was found to be 0.276 ± 0.09.

With `CNC(=C[N+](=O)[O-])NCCSCc1csc(CN(C)C)n1` [Nizatidine], the “fraction” value was found to be 0.226 ± 0.059. Then `CC(=O)Oc1cc2c(s1)CCN(C(C(=O)C1CC1)c1ccccc1F)C2` (stereo not drawn) [Prasugrel (Effient)], with 0.2 ± 0.082; and `CC1=NN(c2ccccc2)C(=O)C1` [Edaravone (MCI-186)], with 0.204 ± 0.048. Then `[O-][n+]1cccc(CO)c1` [Mepiroxol], with 0.291 ± 0.19.
